# Measurements as given in the supplement of paper PMC4683952.
# The other results are listed elsewhere or left out. No stated cut-off is given here; in the data, active = 2 or more and inactive = the rest. This data set is noisy: repeats of one test often differ as much as different tests do.
# System: Lgr5 (MarsCy1-Lgr5-EGFP, U2OS)
# Assay: cell-surface Lgr5 expression (SCi1 fluorescence, background-subtracted) relative to WT DMSO (fold of DMSO control); higher = more Lgr5 at the plasma membrane
# Settings: U2OS MarsCy1-Lgr5-EGFP stable; treatment time: overnight; library: ActiProbe-5K (TimTec); 25 µM
row,Compound,cell-surface Lgr5 expression
1,Fc1ccc(NC(=S)Nc2ccc(Br)c(Cl)c2)cc1,inactive: 0.886
2,Clc1cccc(Cl)c1CSc1nc2ccccc2o1,inactive: 1.15
3,COc1ccc(Nc2snc(Cl)c2C#N)cc1,inactive: 0.546
4,C=CCOc1nc(OC)nc(N2CCCC2)n1,inactive: 0.909
5,Cn1nnc(-c2nc(N3CCOCC3)nc(N3CCOCC3)n2)n1,inactive: 1.31
6,CC1=NNc2c([N+](=O)[O-])nc(C)n2C1,inactive: 1.17
7,CCN(Cc1nonc1C)C(=O)c1ccnn1C(F)F,inactive: 1.12
8,O=C(O)CC(Sc1cccs1)C(=O)O (centres undefined),inactive: 1.35
9,N#CC1=C(N)C(C#N)(C#N)[C@@H](c2ccc(F)cc2)[C@@H]2CSCC=C12,inactive: 1.19
10,Fc1ccc(NC(=S)Nc2ccc(Br)cc2)c(F)c1,inactive: 0.68
11,CC1CN(C(=O)C(C)C)CC(C)O1 (centres undefined),inactive: 1.09
12,Cc1ccsc1/C=N/NC(=O)Cc1cc(=O)[nH][nH]1,inactive: 0.971
13,Clc1ncc(Br)c(Cl)n1,inactive: 1.15
14,CS(=O)(=O)N1CCN(c2c([N+](=O)[O-])cc(C(F)(F)F)cc2[N+](=O)[O-])CC1,inactive: 1.18
15,c1ccc2c(Cc3ccncc3)c3ccccc3nc2c1,inactive: 1.32
16,N#Cc1cnc2c(C#N)cnn2c1N,inactive: 1.01
17,O=C1CSC(=S)N1Cc1cccnc1,inactive: 1.71
18,CC1CCc2c(sc(N)c2C#N)C1 (centres undefined),inactive: 1.14
19,CS(=O)(=O)N(Cc1ccon1)c1ccc2c(c1)OCO2,inactive: 1.22
20,N#CC1Cc2cc(Br)ccc2-c2cc(F)ccc21 (centres undefined),inactive: 1.05
21,S=C([S-])N(CCN(Cc1cccs1)C(=S)[S-])Cc1cccs1.[Na+].[Na+],inactive: 0.992
22,O=C1CS/C(=N\c2cnn(COc3ccc(Br)cc3)c2)N1C1CC1,inactive: 1.6
23,CNCC1OCCc2ccccc21 (centres undefined),inactive: 1.12
24,c1ccc(-n2c3c(c4ccccc42)CCC3)cc1,inactive: 1.07
25,Fc1ccc(-c2nnc(S)o2)cc1,inactive: 1.07
26,Cc1ccc(/C=N\NC(N)=S)s1,inactive: 1.07
27,O=C(O)CCc1ccc(-c2cccs2)o1,inactive: 1.31

row,Compound,cell-surface Lgr5 expression
1,OC1(c2ccccc2)Oc2ccccc2N=C1c1ccccc1 (centres undefined),inactive: 0.927
2,CN1COc2ccc3ccccc3c2C1,inactive: 1.13
3,O=S(=O)(Nc1cccc2ccccc12)N1CCCCC1,inactive: 0.756
4,COC(=O)CCC1(CCC(=O)OC)C(=O)CC(C)(C)CC1=O,inactive: 1.01
5,CSc1ccc(/C=N/n2c(S)nnc2-c2cccnc2)cc1,inactive: 0.981
6,CC1CCN(c2nc(N3CCC(C)CC3)nc(N3CCC(C)CC3)n2)CC1,inactive: 1.24
7,Cc1nnc(SCc2csc(N)n2)n1C,inactive: 1.08
8,CC1CN(S(=O)(=O)c2ccc(F)cc2)CC(C)O1 (centres undefined),inactive: 1.01
9,O=C(O)Cc1ccsc1,inactive: 1.13
10,CC(=O)c1nnn(-c2nonc2-n2cccc2)c1C,inactive: 1.35
11,CSc1ccc(/C=C(/C#N)C(N)=S)cc1,inactive: 1.34
12,CCn1ncc(Cl)c1CNC(=S)NCCOC,inactive: 1.15
13,Nc1n/c(=N\Nc2ccccc2)ss1,inactive: 1.17
14,Nn1c(=S)[nH]nc(CCC(=O)O)c1=O,inactive: 1.05
15,Oc1cc2c(cc1O)CCN=C2,inactive: 1.14
16,CC(C)(C)c1cc(C(F)(F)F)c(C#N)c(=S)[nH]1,inactive: 1.26
17,OC(OCC1Cc2ccccc2O1)C1Cc2ccccc2O1 (centres undefined),inactive: 0.982
18,O=C1CC(c2ccsc2)c2sccc2N1 (centres undefined),inactive: 0.854
19,OC1=NN=C(CSc2nnnn2-c2ccc(Cl)cc2)Oc2ccccc21,inactive: 0.937
20,N#C/C(=C1\CCCCN1)c1nnc2n1CCCC2,inactive: 0.792
21,Br.COc1ccc(-c2cs/c(=N\Cc3ccccc3)[nH]2)cc1,inactive: 0.939
22,Clc1cc2cccnc2c2ncccc12,inactive: 0.413
23,O=[N+]([O-])c1cccc(N2Cc3ccccc3C2)c1,active: 2.57
24,CCC(C)C(=O)Nc1nnc(C(C)C)s1 (centres undefined),inactive: 1.2
25,Brc1ccc(C2N(c3ccccc3)CCN2c2ccccc2)s1,inactive: 0.902
26,Clc1ccc2c(c1)SS(Cl)=N2 (centres undefined),inactive: 1.19
27,CCn1c(=O)n(C2CCCCC2)c(=O)c2c3c(sc21)CCCC3,inactive: 1.02

# Four entries from above, with tabs.
row	Compound	cell-surface Lgr5 expression
19	OC1=NN=C(CSc2nnnn2-c2ccc(Cl)cc2)Oc2ccccc21	inactive: 0.937
20	N#C/C(=C1\CCCCN1)c1nnc2n1CCCC2	inactive: 0.792
21	Br.COc1ccc(-c2cs/c(=N\Cc3ccccc3)[nH]2)cc1	inactive: 0.939
22	Clc1cc2cccnc2c2ncccc12	inactive: 0.413
